{"source": "PubChem BioAssay AID720641", "about": "(ICCB-Longwood Screening Facility, Harvard Medical School, 2013)", "note": "Some of the results follow. Some of these compounds have results that are not shown, active ones among them.", "data": [{"assay": "Staphylococcus aureus RN4220 growth blockers – two temperatures, LtaS inhibitor project, primary screen (AID 720641)", "conditions": "S. aureus RN4220 growth, OD600, 20 h, 42 °C; measured here: growth at 30 °C; stronger effect = lower value", "units": {"relative growth": "%"}, "values": [{"smiles": "O=C(NCC1(N2CCCCC2)CCCCC1)c1ccc2c(c1)OCCO2", "relative growth": 95.8}, {"smiles": "CC(C)Oc1ccc(C(=O)NCC2(N(C)C)CCCCC2)cc1", "relative growth": 87.7}, {"smiles": "COc1cc(C(=O)NCC2(N(C)C)CCCCC2)cc(OC)c1OC", "relative growth": 87.5}, {"smiles": "Cc1cccc(C(=O)NCC2(N(C)C)CCCCC2)c1", "relative growth": 85.9}, {"smiles": "CN1C2CCC1CC(OC(=O)C(O)(c1ccccc1)c1ccccc1)C2", "note": "(centres undefined)", "relative growth": 104}, {"smiles": "CC(C)COc1ccc(C(=O)NCC2(N(C)C)CCCCC2)cc1", "relative growth": 84.3}, {"smiles": "O=C(OC1CN2CCC1CC2)C(CO)(c1ccccc1)c1ccccc1", "note": "(centres undefined)", "relative growth": 87.2}, {"smiles": "COc1cccc(C(=O)NCC2(N3CCOCC3)CCCCC2)c1", "relative growth": 91.3}, {"smiles": "COc1ccc(C(=O)NCC2(N(C)C)CCCCC2)cc1Cl", "relative growth": 90.2}, {"smiles": "CN(C)C1(CNC(=O)c2ccncc2)CCCCC1", "relative growth": 90.5}, {"smiles": "N#CC(C#N)=Cc1ccccc1", "relative growth": 72.2}, {"smiles": "CCOc1cccc(C(=O)NCC2(N(C)C)CCCCC2)c1", "relative growth": 87.3}, {"smiles": "COc1ccc(OC)c(C=C(C#N)C#N)c1", "relative growth": 66.9}, {"smiles": "CCCCOc1ccccc1C(=O)NCC1(N(C)C)CCCCC1", "relative growth": 93.6}, {"smiles": "CN(C)C1(CNC(=O)c2ccccc2[N+](=O)[O-])CCCCC1", "relative growth": 87.4}, {"smiles": "CN(C)c1ccc(C(=O)NCC2(N(C)C)CCCCC2)cc1", "relative growth": 88.6}, {"smiles": "CN(C)C1(CNC(=O)c2ccccc2F)CCCCC1", "relative growth": 86.3}, {"smiles": "CN(C)C1(CNC(=O)c2cccc(Cl)c2)CCCCC1", "relative growth": 87}, {"smiles": "O=C(NCC1(N2CCOCC2)CCCCC1)c1cnc(Cl)c(Cl)c1", "relative growth": 90.1}]}]}
